Source: article PMC6697746
No constants are given. Whether binding was seen depends on the method and setting. Binding seen in cells or lysates may run through a third protein. Binding can be weak; no strength is given.

Amino acid sequences for entries named in this document (tags omitted). A change or cut given only in a name is not applied to a line headed by its entry.
UniProt O14980: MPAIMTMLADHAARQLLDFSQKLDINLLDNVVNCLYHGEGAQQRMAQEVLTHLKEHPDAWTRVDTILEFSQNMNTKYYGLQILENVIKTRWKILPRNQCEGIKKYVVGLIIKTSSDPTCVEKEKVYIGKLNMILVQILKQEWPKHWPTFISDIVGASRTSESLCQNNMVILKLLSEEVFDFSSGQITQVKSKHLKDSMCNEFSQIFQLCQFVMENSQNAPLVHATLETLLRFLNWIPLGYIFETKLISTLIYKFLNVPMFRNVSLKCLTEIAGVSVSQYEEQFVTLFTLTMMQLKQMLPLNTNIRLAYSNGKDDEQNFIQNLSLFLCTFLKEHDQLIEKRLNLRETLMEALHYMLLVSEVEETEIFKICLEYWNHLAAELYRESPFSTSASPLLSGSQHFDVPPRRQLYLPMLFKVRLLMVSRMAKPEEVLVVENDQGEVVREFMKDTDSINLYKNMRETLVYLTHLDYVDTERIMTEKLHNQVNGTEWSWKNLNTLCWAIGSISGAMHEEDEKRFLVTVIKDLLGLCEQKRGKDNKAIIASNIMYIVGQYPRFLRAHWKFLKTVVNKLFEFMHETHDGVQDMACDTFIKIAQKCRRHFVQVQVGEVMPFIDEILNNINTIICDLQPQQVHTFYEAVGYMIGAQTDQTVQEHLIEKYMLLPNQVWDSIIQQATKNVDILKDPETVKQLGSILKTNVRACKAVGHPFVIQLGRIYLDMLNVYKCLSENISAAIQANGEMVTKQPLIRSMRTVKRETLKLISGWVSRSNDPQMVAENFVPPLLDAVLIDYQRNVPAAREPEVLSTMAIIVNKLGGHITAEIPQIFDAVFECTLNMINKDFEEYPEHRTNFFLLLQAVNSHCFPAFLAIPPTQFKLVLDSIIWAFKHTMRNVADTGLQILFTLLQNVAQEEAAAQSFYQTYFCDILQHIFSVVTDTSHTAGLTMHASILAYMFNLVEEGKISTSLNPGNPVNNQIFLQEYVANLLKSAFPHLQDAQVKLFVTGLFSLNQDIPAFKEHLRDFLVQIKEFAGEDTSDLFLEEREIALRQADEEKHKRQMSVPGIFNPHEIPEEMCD
UniProt Q9UM11: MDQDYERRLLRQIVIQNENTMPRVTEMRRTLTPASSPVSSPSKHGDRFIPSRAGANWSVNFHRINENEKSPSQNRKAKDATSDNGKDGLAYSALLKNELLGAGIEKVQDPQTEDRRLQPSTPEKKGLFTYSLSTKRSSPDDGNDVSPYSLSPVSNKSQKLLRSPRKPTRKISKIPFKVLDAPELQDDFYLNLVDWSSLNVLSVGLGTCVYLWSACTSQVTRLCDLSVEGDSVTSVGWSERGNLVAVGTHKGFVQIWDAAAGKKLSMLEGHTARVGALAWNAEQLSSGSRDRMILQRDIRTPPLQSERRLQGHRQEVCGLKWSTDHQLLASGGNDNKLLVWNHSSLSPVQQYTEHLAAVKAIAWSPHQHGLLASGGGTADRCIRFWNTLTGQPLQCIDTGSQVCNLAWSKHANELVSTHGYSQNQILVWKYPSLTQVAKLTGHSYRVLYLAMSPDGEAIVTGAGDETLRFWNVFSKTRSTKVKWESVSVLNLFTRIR

Molecular target: Flag-CRM1 (human) (UniProt O14980)
Assay: co-IP; 293T cells co-transfected with Flag- and HA-tagged constructs; lysis in EBC buffer (50 mM Tris pH 7.5, 120 mM NaCl, 0.5% NP-40); agarose-conjugated antibody 3-4 h at 4 °C; four washes with NETN buffer; immunoblot

- binding: binds
Substance: HA-Cdh1 with the NES sequence deleted (from UniProt Q9UM11)
